Reference: PubChem BioAssay AID1224830 (NIAID, 2016)

- Screen: 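Host factors that control LPS-induced TNF expression in human macrophages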 (primary screen)
- System: human THP-1 monocytic leukaemia cells, TNF dual-luciferase reporter clone, PMA-differentiated to macrophage-like cells
- Knock-down reagent: siRNA pool against human genes, 50 nM
- Duration: LPS for 4 h, given about 3 days after siRNA transfection
- Conditions: bacterial LPS (TLR4 ligand), 10 ng/ml
- Measurement: 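Ratio of firefly to renilla light, scaled to the plate median and expressed as a robust z-score per replicate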
- Reading the numbers: TNF reporter robust z-score: higher = stronger TNF reporter response to LPS
- Active means: 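Each well counts as active if its z-score is over 2.8 or under -1.5; controls are left without a call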
Shown is a random part of about 18,000 deposited reagents. In the full data, about 2,900 (16%) were called active. 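Calls are made per well; low scores hint the gene aids the LPS response, high scores that it dampens it.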 Unmarked entries are inactive. The numbers tell different reagents against one gene apart. Repeated entries: four replicate wells of each siRNA pool. Reagent sequences are not shown.

What did the screen give for FBLIM1?
TNF reporter robust z-score: 0.63

For FBLIM1, how do the results read?
TNF reporter robust z-score: 2.67

What is on record for FBLIM1?
TNF reporter robust z-score: 1.2

What did the screen give for FBLIM1?
TNF reporter robust z-score: 1.56

For TM2D2, what was measured?
TNF reporter robust z-score: -0.68

With TM2D2, how do the results read?
TNF reporter robust z-score: 0.64

With TM2D2, what does the deposit list?
TNF reporter robust z-score: 0.7

What is on record for TM2D2?
TNF reporter robust z-score: 0.75

Which result is listed for NFE2?
TNF reporter robust z-score: 0.21

What did the screen give for NFE2?
TNF reporter robust z-score: 0.31

What did the screen give for NFE2?
TNF reporter robust z-score: 1.78

How did the screen score PHF8?
TNF reporter robust z-score: 0.22

With PHF8, how do the results read?
TNF reporter robust z-score: -0.99

For PHF8, how do the results read?
TNF reporter robust z-score: 3.65 (active)

With PHF8, how do the results read?
TNF reporter robust z-score: -0.33

What is on record for ACACA?
TNF reporter robust z-score: 0.28

With ACACA, what was measured?
TNF reporter robust z-score: 0.37

Which result is listed for ACACA?
TNF reporter robust z-score: -0.37

What is on record for ACACA?
TNF reporter robust z-score: 0.91

What did the screen give for BICRAL?
TNF reporter robust z-score: 1.74

For BICRAL, how do the results read?
TNF reporter robust z-score: 0.55

With BICRAL, what was measured?
TNF reporter robust z-score: 2.01

What is on record for BICRAL?
TNF reporter robust z-score: 1.41

With IER3IP1, what does the deposit list?
TNF reporter robust z-score: -1.11

With IER3IP1, what was measured?
TNF reporter robust z-score: -0.49

For IER3IP1, how do the results read?
TNF reporter robust z-score: -0.08

For IER3IP1, what was measured?
TNF reporter robust z-score: 0.29

With TIPARP, what does the deposit list?
TNF reporter robust z-score: -2.13 (active)

With TIPARP, what was measured?
TNF reporter robust z-score: -2.18 (active)

Which result is listed for TIPARP?
TNF reporter robust z-score: -2.14 (active)

What is on record for TIPARP?
TNF reporter robust z-score: -2.04 (active)

4 successive entries from above, for reference:
PHF8: TNF reporter robust z-score = -0.99
PHF8: TNF reporter robust z-score = 3.65 (active)
PHF8: TNF reporter robust z-score = -0.33
ACACA: TNF reporter robust z-score = 0.28

Further reagents follow:
For ANKRD36B, what does the deposit list?
TNF reporter robust z-score: -0.55

What did the screen give for ANKRD36B?
TNF reporter robust z-score: -0.49

For ANKRD36B, what does the deposit list?
TNF reporter robust z-score: -0.61

What did the screen give for ANKRD36B?
TNF reporter robust z-score: -0.39

For EIF3F, how do the results read?
TNF reporter robust z-score: 0.95

For EIF3F, what does the deposit list?
TNF reporter robust z-score: 2.33

With EIF3F, how do the results read?
TNF reporter robust z-score: -0.22

How did the screen score EIF3F?
TNF reporter robust z-score: 1.42

How did the screen score SPANXB1 #1?
TNF reporter robust z-score: 0.3

What did the screen give for SPANXB1 #1?
TNF reporter robust z-score: 1.01

What did the screen give for SPANXB1 #1?
TNF reporter robust z-score: 0.88

What is on record for SPANXB1 #1?
TNF reporter robust z-score: 0.78

What did the screen give for SPANXB1 #2?
TNF reporter robust z-score: 1.14

What did the screen give for SPANXB1 #2?
TNF reporter robust z-score: 2.34

For SPANXB1 #2, what does the deposit list?
TNF reporter robust z-score: 1.52

What is on record for SPANXB1 #2?
TNF reporter robust z-score: 2.98 (active)

For ELFN2, what does the deposit list?
TNF reporter robust z-score: 1.71

With ELFN2, what was measured?
TNF reporter robust z-score: -0.11

Which result is listed for ELFN2?
TNF reporter robust z-score: 0.61

What did the screen give for ELFN2?
TNF reporter robust z-score: 2.77

For PASK, what does the deposit list?
TNF reporter robust z-score: -1.03

What did the screen give for PASK?
TNF reporter robust z-score: 0.16

Which result is listed for PASK?
TNF reporter robust z-score: -0.2

What did the screen give for PASK?
TNF reporter robust z-score: 0.75

For NARF, what does the deposit list?
TNF reporter robust z-score: 0.89

For NARF, what was measured?
TNF reporter robust z-score: 0.02

How did the screen score NARF?
TNF reporter robust z-score: 0.33

Which result is listed for NARF?
TNF reporter robust z-score: 0.38

What did the screen give for KLRK1?
TNF reporter robust z-score: -0.55

Which result is listed for KLRK1?
TNF reporter robust z-score: -0.47

What is on record for KLRK1?
TNF reporter robust z-score: -0.48

For KLRK1, what was measured?
TNF reporter robust z-score: -0.02
